# Results published in paper PMC5996148.
# Some of the results follow.
# How the values were obtained:
# Assay in all cases: protein microarray (ProtoArray v5.0), streptavidin-Alexa Fluor 647
# Details in all cases: 3'-biotin; 20 mM Tris (pH 7.5), 5 mM MgCl2, 100 mM KCl, 0.1% Tween-20, A/T-rich and random oligonucleotide blockers; temperature not stated; high values mean tight binding
# [1] = tested on: Mediator of RNA polymerase II transcription subunit 4 (human)
# [2] = tested on: Melanocortin-2 receptor accessory protein (human)
# [3] = tested on: Melanoma-associated antigen 3 (human)
# Melanoregulin (human) = tested on: Melanoregulin (human)
# [4] = tested on: Metal transporter CNNM3 (human)
# [5] = tested on: Mitochondrial chaperone BCS1 (human)
# [6] = tested on: Mitochondrial coiled-coil domain protein 1 (human)
# [7] = tested on: Mitochondrial import inner membrane translocase subunit TIM14 (human)
# [8] = tested on: Mitogen-activated protein kinase 10 (human)
# [9] = tested on: Myelin basic protein (human)
sequence,measurement,setting,value
GGTGACAGGGGTATGGGGAGGGG [G4-2 biotinylated (Ct1)],binding signal,[1],-0.392 z-score
same,binding signal,[2],-0.376 z-score
same,binding signal,[3],-0.402 z-score
same,binding signal,Melanoregulin (human),-0.371 z-score
same,binding signal,[4],-0.366 z-score
same,binding signal,[5],-0.389 z-score
same,binding signal,[6],-0.375 z-score
same,binding signal,[7],3.83 z-score
same,binding signal,[8],-0.392 z-score
same,binding signal,[9],-0.38 z-score

# Given tab-delimited: part of the list above.
sequence	measurement	setting	value
GGTGACAGGGGTATGGGGAGGGG [G4-2 biotinylated (Ct1)]	binding signal	Melanoregulin (human)	-0.371 z-score
same	binding signal	[4]	-0.366 z-score
